Experimental findings from patent US20230108492A1 are described below.

By UniProt entry, the sequences of proteins in these tests, tags left out.
UniProt P29351: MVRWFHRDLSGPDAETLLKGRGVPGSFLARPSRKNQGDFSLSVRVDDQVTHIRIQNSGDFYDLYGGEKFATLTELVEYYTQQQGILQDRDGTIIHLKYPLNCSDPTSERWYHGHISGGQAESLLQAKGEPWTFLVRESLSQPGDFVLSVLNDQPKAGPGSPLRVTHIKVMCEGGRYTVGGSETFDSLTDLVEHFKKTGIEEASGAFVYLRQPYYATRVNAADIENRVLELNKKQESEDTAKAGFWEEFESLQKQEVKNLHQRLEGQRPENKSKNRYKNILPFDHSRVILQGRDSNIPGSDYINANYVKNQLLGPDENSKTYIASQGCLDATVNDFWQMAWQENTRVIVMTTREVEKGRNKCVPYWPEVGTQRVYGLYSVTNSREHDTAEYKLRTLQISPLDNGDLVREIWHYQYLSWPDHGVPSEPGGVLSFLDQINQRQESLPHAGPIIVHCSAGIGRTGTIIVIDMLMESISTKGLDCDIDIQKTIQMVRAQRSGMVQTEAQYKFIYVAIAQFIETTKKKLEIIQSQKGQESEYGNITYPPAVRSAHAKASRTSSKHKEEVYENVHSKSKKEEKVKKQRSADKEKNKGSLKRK

Results are given in words; binding and its absence hold for the method and conditions named. Binding seen in cells or lysates may run through a third protein. Some binding calls cover weakened binding; strength is not graded here.

Experiment [1] has as its target SHP-1 (mouse) (UniProt P29351). Put plainly: co-immunoprecipitation: Siglec G immunoprecipitated, probed with anti-SHP-1 (FIG. 5C legend).
Experiment [2] has as its target SHP-1 (mouse) (UniProt P29351). Put plainly: co-immunoprecipitation: Siglec G immunoprecipitated from CD24Fc-stimulated CD24-/- spleen cells, probed with anti-SHP-1.

B1: Siglec G (mouse homologue of human Siglec 10) (receptor, UniProt Q80ZE3 18-688, looked up)
chain: QMESYFLQVQRIVKAQEGLCIFVPCSFSSPEGKWLNRSPLYGYWFKGIRKPSLSFPVATNNKDKVLEWEARGRFQLLGDISKKNCSLLIKDVQWGDSTNYFFRMERGFERFSFKEEFRLQVEALTQKPDIFIPEVLEPGEPVTVVCLFSWTFNQCPAPSFSWMGDAVSFQESRPHTSNYSVLSFIPGLQHHDTELTCQLDFSRMSTQRTVRLRVAYAPRSLAISIFHDNVSVPDLHENPSHLEVQQGQSLRLLCTADSQPPATLSWVLEDQVLSWSSPVGSRTLALELPWVKAGDSGHYTCQAENRLGSQQHTLDLSVLYPPQDLRVTVSQANRTVLEILRNAISLPVLEGQSLCLVCVTYSNPPANVSWAWVTQTLIPIQSSEPGVLELPLVQREHEGEFTCAAQNPLGAQRISLSLSVHYPPQMSSPSCSWEAKGLHCNCSSRAWPAPSLRWRLGEGLLEGNSSNASFTVTFSSLGPWVNSSLSLLQELGPSLWLSCESWNTHGAQTTSVLLLPDKDSATAFSKGAVLGFGITALLALCLIVVIVKTLQKKGTQEEPSRPKLSRGSTILDYINVVPKTRSLARNWKAEPDAPSRSSPLDTHFPKPKKKQKDPHFTYPGCPDPTSSSQVPVSENNPEELHYAALNFSRLRLQETQDPQDTYSDYTEVRVH
For the molecule B1, the binding result in experiment [1] and in experiment [2] was “binds” each time.
